Results are given in words; binding and its absence hold for the method and conditions named. Some results given as binding are weak or reduced against the parent protein; the word gives no strength.

Sequences of proteins named here, by UniProt entry; tags and fusion partners are left off. Residues count along the entry.
UniProt P05107, residues 124-363: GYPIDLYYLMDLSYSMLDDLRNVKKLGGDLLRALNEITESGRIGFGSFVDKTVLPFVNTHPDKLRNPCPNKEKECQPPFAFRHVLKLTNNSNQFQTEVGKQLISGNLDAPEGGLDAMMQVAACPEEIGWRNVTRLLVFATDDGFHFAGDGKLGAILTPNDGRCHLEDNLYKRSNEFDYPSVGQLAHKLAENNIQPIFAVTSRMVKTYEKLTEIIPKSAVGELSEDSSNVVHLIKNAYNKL

Experimental findings from patent US20100008925A1 are described below.

Experiment [1] concerns the target purified recombinant CD18 βA domain (human) (UniProt P05107). As to the kind of experiment: phage display, three rounds of panning.
Experiment [2] has the same target. Briefly: phage display panning on the CD18 βA domain, followed by clone screening.

B1: anti-CD18 βA scFv (scFv, V domains shown)
VH: VKLQQSGTEVVKPGASVKLSCKASGYIFTSYDIDWVRQTPEQGLEWIGWIFPGEGSTEYNEKFKGRATLSVDKSSSTAYMELTRLTSEDSAVYFCARGDYTYRRYFDLWGQGTTVTVSS
As to B1, the binding entry in experiment [1] and in experiment [2] was “binds” in each case.
